PubChem BioAssay AID1117269, University of Michigan | 2014
The deposit covers 714 reagents; this is a part drawn at random. 49 of all reagents (6.9%) were called active. 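Active means a hit in at least one line; per-line hit columns show which; some siRNA pools appear more than once.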 The record does not give: the amount of reagent.

Assay: 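Kinome-wide knockdown screen for regulators of TGF-beta reporter output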 (primary screen)
Cell system: human A549 lung cancer and 1833 breast cancer (MDA-MB-231-derived) cell lines carrying a stable BTR luciferase reporter
Reagent: siRNA pool against human genes
Time to read-out: 72 h after transfection, then 1 h TGF-beta before the read
Challenge: TGF-beta 10 ng/mL added one hour before luciferin and read-out
Measurement: 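BTR reporter bioluminescence as fold change relative to non-targeting siRNA, averaging triplicates per line; knockdown for 72 h, then TGF-beta at 10 ng/mL 1 h prior to reading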
Direction: fold over scrambled siRNA, A549 and fold over scrambled siRNA, 1833: higher = more reporter light, weaker TGF-beta receptor signalling
Hit rule: 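Active if a hit in A549 or 1833; a line's hit exceeds an upper quartile-based cutoff on mean log fold values, applied per plate and across the whole screen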
Calls: active = hit in at least one line; inactive = hit in neither line

target gene	fold over scrambled siRNA, A549	fold over scrambled siRNA, 1833	hit in A549	hit in 1833	Call
GOLGA5 (golgin A5)	2.9	4.93	not a hit in A549	not a hit in 1833	inactive
MAST4	1.87	1.67	not a hit in A549	not a hit in 1833	inactive
MAPK3 (mitogen-activated protein kinase 3)	2.89	13.7	not a hit in A549	hit in 1833	
IPPK (inositol-pentakisphosphate 2-kinase)	2.65	7.47	not a hit in A549	not a hit in 1833	inactive
FGFR1 (fibroblast growth factor receptor 1)	3.07	1.48	not a hit in A549	not a hit in 1833	inactive
GUCY2C (guanylate cyclase 2C)	18.2	1.96	hit in A549	not a hit in 1833	active
PSKH1 (protein serine kinase H1)	1.26	2.07	not a hit in A549	not a hit in 1833	inactive
PIP5K1B (phosphatidylinositol-4-phosphate 5-kinase type 1 beta)	1.59	3.53	not a hit in A549	not a hit in 1833	inactive
GRK5 (G protein-coupled receptor kinase 5)	3	6.52	not a hit in A549	not a hit in 1833	inactive
LTK (leukocyte receptor tyrosine kinase)	1.39	2.75	not a hit in A549	not a hit in 1833	inactive
KSR1 (kinase suppressor of ras 1)	3.52	5.63	not a hit in A549	not a hit in 1833	inactive
MAPK1 (mitogen-activated protein kinase 1)	1.91	5.53	not a hit in A549	not a hit in 1833	inactive
AXL (AXL receptor tyrosine kinase)	2.08	1.67	not a hit in A549	not a hit in 1833	inactive
SBK1 (SH3 domain binding kinase 1)	1.19	6.34	not a hit in A549	not a hit in 1833	inactive
PKM (pyruvate kinase M1/2)	3.9	7.11	not a hit in A549	not a hit in 1833	inactive
PMVK (phosphomevalonate kinase)	2.48	3.01	not a hit in A549	not a hit in 1833	inactive
EPHA1 (EPH receptor A1)	2.9	5.6	not a hit in A549	not a hit in 1833	inactive
SIK2 (salt inducible kinase 2)	2.8	3.19	not a hit in A549	not a hit in 1833	inactive
TWF2 (twinfilin actin binding protein 2)	5.33	4.56	not a hit in A549	not a hit in 1833	inactive
HIPK1 (homeodomain interacting protein kinase 1)	3.29	5.93	not a hit in A549	not a hit in 1833	inactive
CSNK2B (casein kinase 2 beta)	2.24	2.08	not a hit in A549	not a hit in 1833	inactive
MAP3K9 (mitogen-activated protein kinase kinase kinase 9)	1.73	4.07	not a hit in A549	not a hit in 1833	inactive
NME4 (NME/NM23 nucleoside diphosphate kinase 4)	2.62	4.19	not a hit in A549	not a hit in 1833	inactive

Active calls, of those listed so far:
target gene	fold over scrambled siRNA, A549	fold over scrambled siRNA, 1833	hit in A549	hit in 1833	Call
GUCY2C (guanylate cyclase 2C)	18.2	1.96	hit in A549	not a hit in 1833	active
